{
  "source": "paper PMC11251048",
  "biological_target": "YFP-PARP14 full length (human) (UniProt Q460N5)",
  "experiment": "co-IP; GFP-trap agarose (ChromoTek) on lysates of transfected HEK293FT cells treated with vehicle or IFNγ (100 or 200 U/mL, 24 h); lysis in 10 mM Tris pH 7.5, 150 mM NaCl, 0.5 mM EDTA, 0.5% NP40; 1 h with beads, on ice or at 4 °C; endogenous partners detected by western blot",
  "note": "Results are given in words; binding and its absence hold for the method and conditions named. Binding seen in cells or lysates may run through a third protein.",
  "data": [
    {"substance": "PARP9 (from UniProt Q8IXQ6 1-854) (other; other documents disagree on this pair)", "values": [
      {"measurement": "binding", "value": "no binding"}
    ]}
  ]
}
